Counter-ions that a name gives are not always drawn. The list shows a part of the results. The data scatter; read single values as rough.
test system: Peyronie's disease tunica albuginea primary fibroblasts; assay: inhibition of TGF-beta1-induced alpha-SMA expression (myofibroblast transformation), relative to TGF-beta1-only and untreated controls; higher = stronger inhibition of myofibroblast transformation; settings: 10 µM; TGF-beta1 10 ng/mL; 72 h

SMILES	inhibition of TGF-beta1-induced alpha-SMA expression [%]
CC[C@H](c1ccc(O)cc1)[C@@H](CC)c1ccc(O)cc1 [Hexestrol]	14.5
OC[C@@H](O)CN1CCN(c2ccccc2)CC1 [Levodropropizine]	17.6
N#CC1(c2ccc(NC(=O)c3cccnc3NCc3ccncc3)cc2)CCCC1	-27.8
C=CC[N+]1([C@H]2C[C@H]3[C@@H]4CC[C@H]5C[C@H](O)[C@@H](N6CCOCC6)C[C@]5(C)[C@H]4CC[C@]3(C)[C@H]2OC(C)=O)CCCC1 [Rocuronium Bromide]	17.3
CC(C)(C)NC(=O)[C@H]1CC[C@H]2[C@@H]3CC[C@H]4NC(=O)C=C[C@]4(C)[C@H]3CC[C@]12C [Finasteride]	18.4
Nc1nc(N)c2nc(-c3ccccc3)c(N)nc2n1 [Triamterene]	21.9
C=C1CC[C@H](O)C/C1=C/C=C1\CCC[C@]2(C)[C@@H]([C@H](C)/C=C/[C@H](C)C(C)C)CC[C@@H]12 [Vitamin D2]	-0.924
CCCCOc1ccc(C(=O)CCN2CCCCC2)cc1 [Dyclonine HCl]	17.6
Cn1nnc2c(C(N)=O)ncn2c1=O [Temozolomide]	22.1
CC(C)(C)CC(C)(C)c1ccc(OCCOCC[N+](C)(C)Cc2ccccc2)cc1 [Benzethonium Chloride]	74.1
OC(CCN1CCCC1)(c1ccccc1)C1CCCCC1 (centres undefined) [Procyclidine HCl]	22.6
CC(CN(C)C)CN1c2ccccc2CCc2ccccc21 (centres undefined) [Trimipramine Maleate]	37.3
CCS(=O)(=O)N1CCN(c2ccc(Nc3ncc(C(N)=O)c(NC4CC4)n3)cc2)CC1	36.5
CC(C)C(=O)c1c(C(C)C)nn2ccccc12 [Ibudilast]	69.6
CC(=O)NC(CC(C)C)C(=O)O (centres undefined) [Acetylleucine]	18.8
C[N+](C)(C)C[C@H](O)CC(=O)[O-] [L-carnitine]	9.45
CCOC(=O)/C=C(C)/C=C/C=C(C)/C=C/c1c(C)cc(OC)c(C)c1C [Etretinate]	76.4
CC(C)(C)c1cc(NC(=O)Nc2ccc(-c3cn4c(n3)sc3cc(OCCN5CCOCC5)ccc34)cc2)no1 [Quizartinib (AC220)]	20.6
O=C(/C=C/c1cccc(S(=O)(=O)Nc2ccccc2)c1)NO [Belinostat (PXD101)]	> 100
NC[C@H]1O[C@H](O[C@H]2[C@H](O)[C@@H](O[C@H]3O[C@H](CO)[C@@H](O)[C@H](N)[C@H]3O)[C@H](N)C[C@@H]2N)[C@H](N)C[C@@H]1O [Tobramycin]	-11
NC[C@H]1O[C@H](O[C@H]2[C@H](O)[C@@H](O[C@H]3O[C@H](CO)[C@@H](O)[C@H](N)[C@H]3O)[C@H](N)C[C@@H]2N)[C@H](N)C[C@@H]1O [Tobramycin sulfate]	4.66
CCN(CCCCOC(=O)c1ccc(OC)c(OC)c1)C(C)Cc1ccc(OC)cc1 (centres undefined) [Mebeverine Hydrochloride]	13.5
CCN(CC)C(=O)C1(c2ccccc2)CC1CN (centres undefined) [Milnacipran HCl]	25.1

SMILES	inhibition of TGF-beta1-induced alpha-SMA expression [%]
Cc1cc(C(C)(C)C)cc(C)c1CC1=NCCN1 [Xylometazoline HCl]	21
CC#CCn1c(N2CCC[C@@H](N)C2)nc2c1c(=O)n(Cc1nc(C)c3ccccc3n1)c(=O)n2C [Linagliptin]	8.38
CCN(CC)CCOCCOC(=O)C1(c2ccccc2)CCCC1 [Pentoxyverine Citrate]	13.1
N[C@H]1CONC1=O [L-Cycloserine]	0.578
CNC(=O)c1ccc(N2C(=S)N(c3ccc(C#N)c(C(F)(F)F)c3)C(=O)C2(C)C)cc1F [Enzalutamide (MDV3100)]	78.7
COc1cc2nc(N3CCN(C(=O)C4COc5ccccc5O4)CC3)nc(N)c2cc1OC (centres undefined) [Doxazosin Mesylate]	12.7
Cc1nc(C(=O)NCC(=O)O)c(O)c2ccc(Oc3ccccc3)cc12 [Roxadustat (FG-4592)]	36.6
[Cl][Mn][Cl] [Manganese chloride]	-0.0824
CCCCCCNC(=O)n1cc(F)c(=O)[nH]c1=O [Carmofur]	-50.7
CCC[C@@H]1C[C@@H](C(=O)N[C@@H]([C@H]2O[C@H](SC)[C@H](OP(=O)(O)O)[C@@H](O)[C@H]2O)[C@H](C)Cl)N(C)C1 [Clindamycin Phosphate]	58.4
Nc1nc(=O)n([C@@H]2CS[C@H](CO)O2)cc1F [Emtricitabine]	45
COc1ccc(Cl)cc1C(=O)NCCc1ccc(S(=O)(=O)NC(=O)NC2CCCCC2)cc1 [Glyburide (Glibenclamide)]	7.42
CC#C[C@]1(O)CC[C@H]2[C@@H]3CCC4=CC(=O)CCC4=C3[C@@H](c3ccc(N(C)C)cc3)C[C@@]21C [Mifepristone]	32.5
COC(=O)N[C@@H](C)CNc1nccc(-c2cn(C(C)C)nc2-c2cc(Cl)cc(NS(C)(=O)=O)c2F)n1 [Encorafenib (LGX818)]	97.4
CC[C@@H]1C(=O)N(C)c2cnc(Nc3ccc(C(=O)N[C@H]4CC[C@H](N5CCN(CC6CC6)CC5)CC4)cc3OC)nc2N1C(C)C [Volasertib (BI 6727)]	> 100
CCn1c(=O)c2c(nc(/C=C/c3ccc(OC)c(OC)c3)n2C)n(CC)c1=O [Istradefylline]	-3.88
CC1=NN(c2ccc(C)c(C)c2)C(=O)/C1=N\Nc1cccc(-c2cccc(C(=O)O)c2)c1O [Eltrombopag Olamine]	1.68
CC1=NN(c2ccc(C)c(C)c2)C(=O)/C1=N\Nc1cccc(-c2cccc(C(=O)O)c2)c1O [Eltrombopag]	25.1
C[C@@H]1C/C=C/C=C/C=C/C=C/[C@H](O[C@@H]2O[C@H](C)[C@@H](O)[C@H](N)[C@@H]2O)C[C@@H]2O[C@](O)(C[C@@H](O)C[C@H]3O[C@@H]3/C=C/C(=O)O1)C[C@H](O)[C@H]2C(=O)O [Natamycin]	9.67
CC(C(O)c1ccc(O)cc1)N1CCC(Cc2ccccc2)CC1 (centres undefined) [Ifenprodil Tartrate]	0.156
CC(C)[C@H](N)C(=O)OCCOCn1cnc2c(=O)nc(N)[nH]c21 [Valaciclovir HCl]	19.3
CN1CCN2c3ncccc3Cc3ccccc3C2C1 (centres undefined) [Mirtazapine]	35.4
CC[C@H](NC(=O)[C@H](C)NC)C(=O)N1C[C@@H](O)C[C@H]1Cc1c(-c2[nH]c3cc(F)ccc3c2C[C@@H]2C[C@H](O)CN2C(=O)[C@H](CC)NC(=O)[C@H](C)NC)[nH]c2cc(F)ccc12 [Birinapant]	61.8

SMILES	inhibition of TGF-beta1-induced alpha-SMA expression [%]
CC(C)(Oc1ccc(Cl)cc1)C(=O)OCCOC(=O)c1cccnc1 [Etofibrate]	-13
COC(=O)N/N=C/c1c[n+]([O-])c2ccccc2[n+]1[O-] [Carbadox]	16.9
CN(C(=O)CN(CCO)CC(=O)N(C)C(C)(C)Cc1ccccc1)C(C)(C)Cc1ccccc1 [Oxethazaine]	47.1
Cc1cc(C)nc(NS(=O)(=O)c2ccc(N)cc2)n1 [Sulfamethazine Sodium Salt]	0.177
Cc1cc(C)nc(NS(=O)(=O)c2ccc(N)cc2)n1 [Sulfamethazine]	3.9
CC1(C)O[C@@H]2C[C@H]3[C@@H]4C[C@H](F)C5=CC(=O)C=C[C@]5(C)[C@@]4(F)[C@@H](O)C[C@]3(C)[C@]2(C(=O)CO)O1 [Fluocinolone Acetonide]	41.6
CNC(=O)[C@@H](NC(=O)[C@H](CC(C)C)[C@H](O)C(=O)NO)C(C)(C)C [Marimastat (BB-2516)]	3.07
C[C@]12CC[C@@H]3c4ccc(O)cc4C[C@@H](CCCCCCCCC[S+]([O-])CCCC(F)(F)C(F)(F)F)[C@H]3[C@@H]1CC[C@@H]2O (some centres undefined) [Fulvestrant]	19.6
CO/N=C(\C(=O)N[C@@H]1C(=O)N2C(C(=O)O)=C(COC(C)=O)CS[C@H]12)c1csc(N)n1 [Cefotaxime sodium]	9.28
NC(=O)C1CCCc2c1[nH]c1ccc(Cl)cc21 (centres undefined) [Selisistat (EX 527)]	71.1
COC(=O)[C@H](Cc1ccccc1)NC(=O)[C@@H](N)CC(=O)O [Aspartame]	7.58
N#C/C(=C1/SC[C@@H](c2ccc(Cl)cc2Cl)S1)n1ccnc1 [Luliconazole]	-16.4
O=C1O[C@H]([C@@H](O)CO)C([O-])=C1O.[Na+] [Sodium ascorbate]	1.11
CCCCOc1cc(C(=O)OCCN(CC)CC)ccc1N [Oxybuprocaine HCl]	45.1
Clc1ccc2nsnc2c1NC1=NCCN1 [Tizanidine HCl]	20.1
Clc1ccc2nsnc2c1NC1=NCCN1 [Tizanidine]	0.172
Cc1cc(Nc2cc(N3CCN(C)CC3)nc(Sc3ccc(NC(=O)C4CC4)cc3)n2)n[nH]1 [Tozasertib (VX-680, MK-0457)]	59.7
CC(C)Oc1ccc2c(=O)c(-c3ccccc3)coc2c1 [Ipriflavone (Osteofix)]	-9.87
CC(=O)Nc1nnc(S(N)(=O)=O)s1 [Acetazolamide]	23.9
O=C(O)C1=C(CSc2nnnn2CS(=O)(=O)O)CS[C@@H]2[C@H](NC(=O)[C@H](O)c3ccccc3)C(=O)N12 [Cefonicid sodium]	-9.67
CCc1cc2c(cc1CC)CC(NC[C@H](O)c1ccc(O)c3[nH]c(=O)ccc13)C2 [Indacaterol]	14.8
CCc1cc2c(cc1CC)CC(NC[C@H](O)c1ccc(O)c3[nH]c(=O)ccc13)C2 [Indacaterol Maleate]	12.7
C=C[C@]1(C)C[C@@H](OC(=O)CSC(C)(C)CNC(=O)[C@H](N)C(C)C)[C@]2(C)[C@H](C)CC[C@]3(CCC(=O)[C@H]32)[C@@H](C)[C@@H]1O [Valnemulin HCl]	-5.12
